Results are given in words; binding and its absence hold for the method and conditions named. For some of these results: Binding seen in cells or lysates may run through a third protein. Some results given as binding are weak or reduced against the parent protein; the word gives no strength. For some of these results: Where a sequence is shown, tags or fusion partners need not be part of it.
How the values were obtained:
[1] = target: T1, LWD2 expressed in HEK-293T cells (Arabidopsis) (UniProt Q38960); assay: co-IP; co-transfected HEK-293T cells, blue light or dark for 3 h; lysate on GFP trap beads or Myc agarose beads, 4 °C, 2 h; some panels with CRY2 or PPK1 co-expressed
T1 sequence: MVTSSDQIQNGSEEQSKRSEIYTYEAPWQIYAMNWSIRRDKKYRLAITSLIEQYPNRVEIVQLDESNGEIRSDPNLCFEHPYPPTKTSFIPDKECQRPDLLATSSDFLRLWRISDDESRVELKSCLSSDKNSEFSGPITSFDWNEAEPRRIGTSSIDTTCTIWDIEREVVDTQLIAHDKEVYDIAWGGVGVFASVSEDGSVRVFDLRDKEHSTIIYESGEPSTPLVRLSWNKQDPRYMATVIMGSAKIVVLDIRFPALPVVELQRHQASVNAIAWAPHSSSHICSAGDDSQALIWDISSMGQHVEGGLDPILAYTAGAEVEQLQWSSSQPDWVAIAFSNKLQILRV

Chains of the proteins cited; added tags and fusions are not shown.
UniProt Q96524: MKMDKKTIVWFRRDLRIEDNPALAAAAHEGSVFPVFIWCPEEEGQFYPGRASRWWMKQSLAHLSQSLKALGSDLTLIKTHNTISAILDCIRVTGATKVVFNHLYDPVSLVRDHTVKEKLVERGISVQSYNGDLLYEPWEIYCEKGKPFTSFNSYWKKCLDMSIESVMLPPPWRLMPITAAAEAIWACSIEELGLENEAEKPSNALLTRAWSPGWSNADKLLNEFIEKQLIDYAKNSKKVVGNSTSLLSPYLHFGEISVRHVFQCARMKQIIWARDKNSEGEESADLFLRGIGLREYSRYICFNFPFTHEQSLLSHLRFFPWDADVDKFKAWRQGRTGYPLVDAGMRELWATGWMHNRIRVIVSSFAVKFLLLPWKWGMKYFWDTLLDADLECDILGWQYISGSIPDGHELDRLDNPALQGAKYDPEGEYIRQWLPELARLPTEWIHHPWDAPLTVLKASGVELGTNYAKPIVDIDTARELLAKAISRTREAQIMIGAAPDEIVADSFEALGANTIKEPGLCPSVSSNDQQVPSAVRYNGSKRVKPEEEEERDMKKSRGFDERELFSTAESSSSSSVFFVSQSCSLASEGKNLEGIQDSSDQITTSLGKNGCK
UniProt Q9C7G4: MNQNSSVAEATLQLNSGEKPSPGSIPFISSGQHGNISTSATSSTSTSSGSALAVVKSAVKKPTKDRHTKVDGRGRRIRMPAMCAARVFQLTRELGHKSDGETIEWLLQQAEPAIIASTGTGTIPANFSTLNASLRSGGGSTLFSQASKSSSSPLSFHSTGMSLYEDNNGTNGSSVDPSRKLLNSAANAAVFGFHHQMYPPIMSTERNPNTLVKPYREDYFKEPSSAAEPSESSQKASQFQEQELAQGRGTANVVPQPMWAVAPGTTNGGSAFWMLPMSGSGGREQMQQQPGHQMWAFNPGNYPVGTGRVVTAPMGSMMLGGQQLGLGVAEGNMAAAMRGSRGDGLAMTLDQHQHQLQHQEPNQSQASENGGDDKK

[2] = target: T2, Myc-LWD1 expressed in HEK-293T cells (Arabidopsis) (UniProt Q9LPV9); assay: as above
T2 sequence: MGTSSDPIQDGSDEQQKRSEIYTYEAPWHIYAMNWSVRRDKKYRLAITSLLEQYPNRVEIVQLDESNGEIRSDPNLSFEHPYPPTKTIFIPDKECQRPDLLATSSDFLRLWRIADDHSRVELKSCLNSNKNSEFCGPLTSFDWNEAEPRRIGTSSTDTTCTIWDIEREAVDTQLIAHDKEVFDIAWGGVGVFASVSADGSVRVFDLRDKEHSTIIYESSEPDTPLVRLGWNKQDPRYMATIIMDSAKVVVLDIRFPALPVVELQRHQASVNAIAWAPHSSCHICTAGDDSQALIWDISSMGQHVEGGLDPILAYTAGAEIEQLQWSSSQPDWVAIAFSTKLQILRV

nYFP-CRY2 (Arabidopsis) = nYFP-CRY2 (Arabidopsis) (UniProt Q96524); assay: split reporter; BiFC (nYFP/cYFP) in transfected Arabidopsis protoplasts, confocal microscopy; darkness and blue light
[3] = target: CRY2 fused to the GAL4 DNA binding domain (bait, pBridge) (Arabidopsis) (UniProt Q96524); assay: two-hybrid; yeast Y190; prey in pGADT7, bait in pBridge; β-galactosidase activity; dark or blue light (30 μmol m^-2 s^-1) for 3 h
[4] = target: GFP-tagged CRY2 expressed in HEK-293T cells (Arabidopsis) (UniProt Q96524); assay: co-IP; co-transfected HEK-293T cells, blue light or dark for 3 h; lysate on GFP trap beads or Myc agarose beads, 4 °C, 2 h; some panels with CRY2 or PPK1 co-expressed
[5] = target: CRY2 expressed in HEK-293T cells (tag not stated for this experiment) (Arabidopsis) (UniProt Q96524); assay: as above

GFP-TCP22 expressed in HEK-293T cells (from UniProt Q9C7G4 1-375)
binding [1]: binds | binding [2]: binds

cYFP-TCP22 (from UniProt Q9C7G4 1-375)
binding (nYFP-CRY2 (Arabidopsis)): binds

TCP22 fused to the GAL4 activation domain (prey, pGADT7) (from UniProt Q9C7G4 1-375)
binding [3]: binds

Flag-tagged TCP22 expressed in HEK-293T cells (from UniProt Q9C7G4 1-375)
binding [4]: binds

B1: Myc-LWD1 expressed in HEK-293T cells (protein, UniProt Q9LPV9 1-346)
chain: MGTSSDPIQDGSDEQQKRSEIYTYEAPWHIYAMNWSVRRDKKYRLAITSLLEQYPNRVEIVQLDESNGEIRSDPNLSFEHPYPPTKTIFIPDKECQRPDLLATSSDFLRLWRIADDHSRVELKSCLNSNKNSEFCGPLTSFDWNEAEPRRIGTSSTDTTCTIWDIEREAVDTQLIAHDKEVFDIAWGGVGVFASVSADGSVRVFDLRDKEHSTIIYESSEPDTPLVRLGWNKQDPRYMATIIMDSAKVVVLDIRFPALPVVELQRHQASVNAIAWAPHSSCHICTAGDDSQALIWDISSMGQHVEGGLDPILAYTAGAEIEQLQWSSSQPDWVAIAFSTKLQILRV
binding [5]: binds

B2: LWD2 expressed in HEK-293T cells (protein, UniProt Q38960 1-346)
chain: MVTSSDQIQNGSEEQSKRSEIYTYEAPWQIYAMNWSIRRDKKYRLAITSLIEQYPNRVEIVQLDESNGEIRSDPNLCFEHPYPPTKTSFIPDKECQRPDLLATSSDFLRLWRISDDESRVELKSCLSSDKNSEFSGPITSFDWNEAEPRRIGTSSIDTTCTIWDIEREVVDTQLIAHDKEVYDIAWGGVGVFASVSEDGSVRVFDLRDKEHSTIIYESGEPSTPLVRLSWNKQDPRYMATVIMGSAKIVVLDIRFPALPVVELQRHQASVNAIAWAPHSSSHICSAGDDSQALIWDISSMGQHVEGGLDPILAYTAGAEVEQLQWSSSQPDWVAIAFSNKLQILRV
binding [5]: binds
